Key:
ZIPK/DAPK3 = ZIPK/DAPK3 (Homo sapiens, UniProt O43293); experiment: biochemical; details: read-out: % enzyme activity, 1 μM; Run 1, Run 2
SLK/STK2 [1] = biological target: T1, SLK/STK2 (Homo sapiens, UniProt Q9H2G2); details: 1 μM; Run 1, Run 2
LATS1 = LATS1 (Homo sapiens, UniProt O95835); experiment: biochemical; details: read-out: % enzyme activity, 1 μM; Run 1, Run 2
EPHB2 = EPHB2 (Homo sapiens, UniProt P29323); details: 1 μM; Run 1, Run 2
CLK2 = CLK2 (Homo sapiens, UniProt P49760); details: 1 μM; Run 1, Run 2
BLK = BLK (Homo sapiens, UniProt P51451); experiment: biochemical; details: read-out: % enzyme activity, 1 μM; Run 1, Run 2
Haspin = Haspin (Homo sapiens, UniProt Q8TF76); experiment: biochemical; details: read-out: % enzyme activity, 1 μM; Run 1, Run 2
VRK2 = VRK2 (Homo sapiens, UniProt Q86Y07); details: 1 μM; Run 1, Run 2
SLK/STK2 [2] = biological target: T1, SLK/STK2; experiment: biochemical; details: read-out: % enzyme activity, 1 μM; Run 1, Run 2
RIPK4 = RIPK4 (Homo sapiens, UniProt P57078); experiment: biochemical; details: read-out: % enzyme activity, 1 μM; Run 1, Run 2
ZAP70 = ZAP70 (Homo sapiens, UniProt P43403); experiment: biochemical; details: read-out: % enzyme activity, 1 μM; Run 1, Run 2
FLT1/VEGFR1 = FLT1/VEGFR1 (Homo sapiens, UniProt P17948); details: 1 μM; Run 1, Run 2
ERN2/IRE2 = ERN2/IRE2 (Homo sapiens, UniProt Q76MJ5); details: 1 μM; Run 1, Run 2
CDK2/cyclin E = CDK2/cyclin E (Homo sapiens, UniProt P24941); details: 1 μM; Run 1, Run 2
CAMK1a = CAMK1a (Homo sapiens, UniProt Q14012); experiment: biochemical; details: read-out: % enzyme activity, 1 μM; Run 1, Run 2
SNRK = SNRK (Homo sapiens, UniProt Q9NRH2); experiment: biochemical; details: read-out: % enzyme activity, 1 μM; Run 1, Run 2
CDK2/cyclin A = CDK2/cyclin A (Homo sapiens, UniProt P24941); details: 1 μM; Run 1, Run 2
TBK1 = TBK1 (Homo sapiens, UniProt Q9UHD2); experiment: biochemical; details: read-out: % enzyme activity, 1 μM; Run 1, Run 2
EPHB1 = EPHB1 (Homo sapiens, UniProt P54762); details: 1 μM; Run 1, Run 2
TXK = TXK (Homo sapiens, UniProt P42681); details: 1 μM; Run 1, Run 2
BMX/ETK = BMX/ETK (Homo sapiens, UniProt P51813); details: 1 μM; Run 1, Run 2
JAK1 = JAK1 (Homo sapiens, UniProt P23458); experiment: biochemical; details: read-out: % enzyme activity, 1 μM; Run 1, Run 2
PASK = PASK (Homo sapiens, UniProt Q96RG2); experiment: biochemical; details: read-out: % enzyme activity, 1 μM; Run 1, Run 2
IR = IR (Homo sapiens, UniProt P06213); details: 1 μM; Run 1, Run 2
CAMKK1 = CAMKK1 (Homo sapiens, UniProt Q8N5S9); experiment: biochemical; details: read-out: % enzyme activity, 1 μM; Run 1, Run 2
STK22D/TSSK1 = STK22D/TSSK1 (Homo sapiens, UniProt Q9BXA7); experiment: biochemical; details: read-out: % enzyme activity, 1 μM; Run 1, Run 2
LYN B = LYN B (Homo sapiens, UniProt P07948); details: 1 μM; Run 1, Run 2
VRK1 = VRK1 (Homo sapiens, UniProt Q99986); details: 1 μM; Run 1, Run 2
PYK2 = PYK2 (Homo sapiens, UniProt Q14289); experiment: biochemical; details: read-out: % enzyme activity, 1 μM; Run 1, Run 2
PKCd = PKCd (Homo sapiens, UniProt Q05655); details: 1 μM; Run 1, Run 2
MLCK/MYLK = MLCK/MYLK (Homo sapiens, UniProt Q15746); details: 1 μM; Run 1, Run 2
CDK17/cyclin Y (PCTK2) = CDK17/cyclin Y (PCTK2) (Homo sapiens, UniProt Q00537); experiment: biochemical; details: read-out: % enzyme activity, 1 μM; Run 1, Run 2
MELK = MELK (Homo sapiens, UniProt Q14680); details: 1 μM; Run 1, Run 2
EPHA5 = EPHA5 (Homo sapiens, UniProt P54756); details: 1 μM; Run 1, Run 2
TYK1/LTK = TYK1/LTK (Homo sapiens, UniProt P29376); details: 1 μM; Run 1, Run 2
MKK4 = MKK4 (Homo sapiens, UniProt P45985); details: 1 μM; Run 1, Run 2
STK39/STLK3 = STK39/STLK3 (Homo sapiens, UniProt Q9UEW8); details: 1 μM; Run 1, Run 2
CLK1 = CLK1 (Homo sapiens, UniProt P49759); experiment: biochemical; details: read-out: % enzyme activity, 1 μM; Run 1, Run 2
PEAK1 = PEAK1 (Homo sapiens, UniProt Q9H792); experiment: biochemical; details: read-out: % enzyme activity, 1 μM; Run 1, Run 2
MASTL = MASTL (Homo sapiens, UniProt Q96GX5); details: 1 μM; Run 1, Run 2
FES/FPS = FES/FPS (Homo sapiens, UniProt P07332); details: 1 μM; Run 1, Run 2
MRCKb/CDC42BPB = MRCKb/CDC42BPB (Homo sapiens, UniProt Q9Y5S2); details: 1 μM; Run 1, Run 2
MSSK1/STK23 = MSSK1/STK23 (Homo sapiens, UniProt Q9UPE1); details: 1 μM; Run 1, Run 2

The chains behind the UniProt entries cited, without tags or fusion partners. Where a name states a change or a piece, a line headed by the entry shows the natural chain unless it says otherwise. Residues count along the entry.
UniProt O95835: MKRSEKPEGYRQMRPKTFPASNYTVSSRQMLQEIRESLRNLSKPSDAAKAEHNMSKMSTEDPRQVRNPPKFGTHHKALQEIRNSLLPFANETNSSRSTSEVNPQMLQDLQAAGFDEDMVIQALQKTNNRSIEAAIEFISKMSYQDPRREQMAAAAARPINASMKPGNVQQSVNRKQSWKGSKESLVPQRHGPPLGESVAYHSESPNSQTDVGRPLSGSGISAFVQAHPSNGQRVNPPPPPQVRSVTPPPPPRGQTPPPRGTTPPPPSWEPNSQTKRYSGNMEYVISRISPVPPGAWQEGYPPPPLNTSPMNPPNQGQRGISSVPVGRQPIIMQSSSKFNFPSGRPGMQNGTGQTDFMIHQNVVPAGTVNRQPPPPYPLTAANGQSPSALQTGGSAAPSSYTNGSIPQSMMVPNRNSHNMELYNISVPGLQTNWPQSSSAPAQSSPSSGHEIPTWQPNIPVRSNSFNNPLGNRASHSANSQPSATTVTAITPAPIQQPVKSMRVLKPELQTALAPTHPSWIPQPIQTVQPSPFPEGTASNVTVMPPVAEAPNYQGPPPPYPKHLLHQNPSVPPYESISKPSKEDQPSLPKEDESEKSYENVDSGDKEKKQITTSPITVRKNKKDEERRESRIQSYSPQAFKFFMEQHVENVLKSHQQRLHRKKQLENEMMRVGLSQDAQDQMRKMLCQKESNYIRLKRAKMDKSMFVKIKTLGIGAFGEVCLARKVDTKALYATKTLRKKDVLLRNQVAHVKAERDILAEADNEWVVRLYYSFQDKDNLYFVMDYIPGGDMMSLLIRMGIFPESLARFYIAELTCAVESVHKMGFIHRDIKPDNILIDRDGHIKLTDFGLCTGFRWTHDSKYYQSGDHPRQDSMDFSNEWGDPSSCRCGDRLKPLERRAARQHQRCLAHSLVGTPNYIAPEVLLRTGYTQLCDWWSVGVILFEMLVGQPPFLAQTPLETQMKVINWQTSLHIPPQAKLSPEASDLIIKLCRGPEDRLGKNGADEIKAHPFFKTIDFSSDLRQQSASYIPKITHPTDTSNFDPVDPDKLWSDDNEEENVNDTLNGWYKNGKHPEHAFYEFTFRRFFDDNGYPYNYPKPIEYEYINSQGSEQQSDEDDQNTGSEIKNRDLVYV
UniProt P29323, 19-1055: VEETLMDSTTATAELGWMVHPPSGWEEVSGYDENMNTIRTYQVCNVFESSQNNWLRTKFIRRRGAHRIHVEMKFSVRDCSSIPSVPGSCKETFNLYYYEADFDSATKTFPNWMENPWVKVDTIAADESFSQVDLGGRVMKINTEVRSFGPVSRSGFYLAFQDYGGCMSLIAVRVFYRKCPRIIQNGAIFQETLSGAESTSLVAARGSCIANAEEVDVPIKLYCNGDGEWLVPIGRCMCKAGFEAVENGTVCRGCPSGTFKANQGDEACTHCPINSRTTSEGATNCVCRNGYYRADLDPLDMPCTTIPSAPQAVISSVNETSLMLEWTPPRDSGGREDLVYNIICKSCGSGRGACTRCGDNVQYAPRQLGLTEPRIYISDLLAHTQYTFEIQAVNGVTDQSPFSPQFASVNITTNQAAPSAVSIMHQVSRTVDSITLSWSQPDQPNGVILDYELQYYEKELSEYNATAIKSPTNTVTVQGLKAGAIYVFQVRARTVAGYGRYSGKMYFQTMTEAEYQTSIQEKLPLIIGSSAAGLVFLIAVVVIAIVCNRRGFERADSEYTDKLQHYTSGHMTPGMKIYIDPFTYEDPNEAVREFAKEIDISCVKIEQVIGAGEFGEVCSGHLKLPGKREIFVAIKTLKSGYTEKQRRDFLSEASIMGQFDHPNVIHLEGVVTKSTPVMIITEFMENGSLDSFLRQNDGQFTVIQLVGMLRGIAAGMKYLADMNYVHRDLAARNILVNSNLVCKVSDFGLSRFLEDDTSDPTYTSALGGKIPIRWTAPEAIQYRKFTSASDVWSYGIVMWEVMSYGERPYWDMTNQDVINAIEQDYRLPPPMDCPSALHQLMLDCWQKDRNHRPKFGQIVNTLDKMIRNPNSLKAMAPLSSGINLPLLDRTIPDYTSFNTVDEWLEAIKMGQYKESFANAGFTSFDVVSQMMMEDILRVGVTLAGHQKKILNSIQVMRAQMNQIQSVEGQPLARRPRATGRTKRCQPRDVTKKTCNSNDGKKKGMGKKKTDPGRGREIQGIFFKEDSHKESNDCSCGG
UniProt Q86Y07, whole entry, species assumed: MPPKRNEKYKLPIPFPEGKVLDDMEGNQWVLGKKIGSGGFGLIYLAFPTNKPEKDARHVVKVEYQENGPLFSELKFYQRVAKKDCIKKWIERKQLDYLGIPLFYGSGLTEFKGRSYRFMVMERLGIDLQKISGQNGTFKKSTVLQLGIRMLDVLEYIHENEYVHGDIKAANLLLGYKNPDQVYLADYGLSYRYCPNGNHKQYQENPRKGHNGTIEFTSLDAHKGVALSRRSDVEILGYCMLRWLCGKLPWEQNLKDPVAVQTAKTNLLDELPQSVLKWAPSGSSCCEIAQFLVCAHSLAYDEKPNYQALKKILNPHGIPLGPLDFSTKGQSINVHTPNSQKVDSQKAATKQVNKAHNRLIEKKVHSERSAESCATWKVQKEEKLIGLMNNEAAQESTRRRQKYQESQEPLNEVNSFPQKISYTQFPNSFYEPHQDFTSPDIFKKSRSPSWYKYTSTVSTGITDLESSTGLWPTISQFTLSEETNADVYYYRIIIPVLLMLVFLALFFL
UniProt Q14289, whole entry: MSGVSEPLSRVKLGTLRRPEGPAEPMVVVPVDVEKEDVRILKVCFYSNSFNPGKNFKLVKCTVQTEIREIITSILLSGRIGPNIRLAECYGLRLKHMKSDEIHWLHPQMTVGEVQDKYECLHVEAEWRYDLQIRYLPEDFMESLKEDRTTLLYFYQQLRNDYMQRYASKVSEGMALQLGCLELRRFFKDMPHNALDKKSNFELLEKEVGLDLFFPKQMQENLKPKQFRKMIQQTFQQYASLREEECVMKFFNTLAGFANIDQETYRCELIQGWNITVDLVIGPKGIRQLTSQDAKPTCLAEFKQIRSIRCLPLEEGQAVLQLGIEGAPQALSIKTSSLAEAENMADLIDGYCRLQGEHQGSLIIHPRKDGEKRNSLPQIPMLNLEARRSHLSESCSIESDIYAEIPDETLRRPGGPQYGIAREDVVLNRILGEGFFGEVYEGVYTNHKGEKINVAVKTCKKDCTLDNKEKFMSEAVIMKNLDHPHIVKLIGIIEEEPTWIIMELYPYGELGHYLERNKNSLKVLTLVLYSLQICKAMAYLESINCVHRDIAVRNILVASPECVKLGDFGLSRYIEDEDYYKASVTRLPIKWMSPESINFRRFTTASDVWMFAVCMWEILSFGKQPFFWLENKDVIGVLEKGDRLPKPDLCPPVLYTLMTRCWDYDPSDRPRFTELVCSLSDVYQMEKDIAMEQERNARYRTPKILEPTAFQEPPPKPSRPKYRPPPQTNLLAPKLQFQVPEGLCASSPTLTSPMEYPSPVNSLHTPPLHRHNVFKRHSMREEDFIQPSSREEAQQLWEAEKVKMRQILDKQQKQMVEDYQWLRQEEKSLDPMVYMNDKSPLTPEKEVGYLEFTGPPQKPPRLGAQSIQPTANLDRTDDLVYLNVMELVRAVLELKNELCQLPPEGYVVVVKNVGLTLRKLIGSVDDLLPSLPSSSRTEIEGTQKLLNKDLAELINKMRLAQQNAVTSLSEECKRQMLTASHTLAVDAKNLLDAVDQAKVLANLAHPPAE
UniProt Q05655: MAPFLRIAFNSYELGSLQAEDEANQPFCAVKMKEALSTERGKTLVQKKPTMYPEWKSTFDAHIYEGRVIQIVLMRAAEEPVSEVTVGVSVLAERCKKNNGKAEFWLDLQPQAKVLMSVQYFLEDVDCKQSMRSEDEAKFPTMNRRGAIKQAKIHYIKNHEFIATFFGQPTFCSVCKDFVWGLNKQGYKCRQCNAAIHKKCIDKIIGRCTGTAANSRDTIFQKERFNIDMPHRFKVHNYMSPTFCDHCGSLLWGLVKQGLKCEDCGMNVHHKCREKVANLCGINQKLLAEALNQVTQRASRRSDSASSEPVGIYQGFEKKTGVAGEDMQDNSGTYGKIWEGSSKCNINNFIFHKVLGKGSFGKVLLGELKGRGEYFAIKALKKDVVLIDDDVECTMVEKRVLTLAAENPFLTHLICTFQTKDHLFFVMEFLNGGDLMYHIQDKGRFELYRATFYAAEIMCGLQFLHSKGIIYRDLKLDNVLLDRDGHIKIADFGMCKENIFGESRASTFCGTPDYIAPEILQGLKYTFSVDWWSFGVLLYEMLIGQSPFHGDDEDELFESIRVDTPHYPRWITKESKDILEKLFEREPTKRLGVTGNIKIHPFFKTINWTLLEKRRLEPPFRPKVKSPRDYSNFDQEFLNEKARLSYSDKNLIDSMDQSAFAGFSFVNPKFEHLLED
UniProt Q00537: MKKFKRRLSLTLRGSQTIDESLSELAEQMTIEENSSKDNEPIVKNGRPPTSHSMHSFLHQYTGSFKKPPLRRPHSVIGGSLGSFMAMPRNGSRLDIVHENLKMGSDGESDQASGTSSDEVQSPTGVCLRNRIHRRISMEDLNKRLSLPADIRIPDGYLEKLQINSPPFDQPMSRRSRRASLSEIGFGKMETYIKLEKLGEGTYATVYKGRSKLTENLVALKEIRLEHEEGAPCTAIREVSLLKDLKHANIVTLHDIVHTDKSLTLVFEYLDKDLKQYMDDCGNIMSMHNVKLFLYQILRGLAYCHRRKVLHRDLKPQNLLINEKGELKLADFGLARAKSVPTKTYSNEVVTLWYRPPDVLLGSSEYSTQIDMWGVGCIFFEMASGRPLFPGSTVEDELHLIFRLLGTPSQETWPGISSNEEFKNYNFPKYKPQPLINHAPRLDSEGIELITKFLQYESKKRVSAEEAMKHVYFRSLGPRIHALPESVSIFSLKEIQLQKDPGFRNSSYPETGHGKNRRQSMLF
UniProt P07332: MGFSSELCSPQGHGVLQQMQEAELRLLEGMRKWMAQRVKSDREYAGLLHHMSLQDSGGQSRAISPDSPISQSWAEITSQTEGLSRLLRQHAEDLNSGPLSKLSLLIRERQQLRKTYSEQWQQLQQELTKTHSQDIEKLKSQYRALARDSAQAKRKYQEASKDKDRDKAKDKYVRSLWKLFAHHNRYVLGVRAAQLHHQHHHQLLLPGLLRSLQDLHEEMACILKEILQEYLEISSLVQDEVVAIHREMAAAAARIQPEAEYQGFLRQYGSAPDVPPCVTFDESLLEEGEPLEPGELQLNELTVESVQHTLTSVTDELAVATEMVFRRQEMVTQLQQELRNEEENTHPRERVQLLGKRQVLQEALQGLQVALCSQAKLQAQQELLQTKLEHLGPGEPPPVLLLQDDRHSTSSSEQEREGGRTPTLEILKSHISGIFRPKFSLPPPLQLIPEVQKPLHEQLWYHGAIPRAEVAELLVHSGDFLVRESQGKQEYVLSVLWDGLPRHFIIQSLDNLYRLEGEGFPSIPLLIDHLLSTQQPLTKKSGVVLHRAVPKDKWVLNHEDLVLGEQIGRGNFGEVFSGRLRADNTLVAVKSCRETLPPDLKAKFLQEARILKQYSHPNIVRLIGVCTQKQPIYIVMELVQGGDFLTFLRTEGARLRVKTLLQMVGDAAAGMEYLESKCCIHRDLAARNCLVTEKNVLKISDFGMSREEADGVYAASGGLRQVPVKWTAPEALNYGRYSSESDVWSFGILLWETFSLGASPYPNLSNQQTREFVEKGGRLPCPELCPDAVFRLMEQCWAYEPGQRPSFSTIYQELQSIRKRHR
UniProt Q9UPE1, whole entry: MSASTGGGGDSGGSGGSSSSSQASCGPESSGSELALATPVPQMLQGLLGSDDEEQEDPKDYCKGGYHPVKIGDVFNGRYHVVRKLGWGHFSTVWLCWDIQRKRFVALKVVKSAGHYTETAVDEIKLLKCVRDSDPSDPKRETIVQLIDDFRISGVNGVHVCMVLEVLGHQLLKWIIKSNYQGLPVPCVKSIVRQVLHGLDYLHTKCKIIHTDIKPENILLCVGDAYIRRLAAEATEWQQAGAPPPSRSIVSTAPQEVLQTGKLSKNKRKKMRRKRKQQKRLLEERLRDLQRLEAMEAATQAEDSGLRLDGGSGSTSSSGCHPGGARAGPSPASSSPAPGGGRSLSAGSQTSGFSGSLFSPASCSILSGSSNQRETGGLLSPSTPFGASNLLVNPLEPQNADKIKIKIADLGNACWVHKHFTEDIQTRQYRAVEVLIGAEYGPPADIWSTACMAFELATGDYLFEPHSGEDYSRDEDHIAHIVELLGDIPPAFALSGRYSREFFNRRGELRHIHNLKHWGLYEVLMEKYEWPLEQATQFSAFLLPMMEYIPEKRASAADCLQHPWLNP

## COc1cc(-c2cncc(-c3ccc(N4CCN(C(C)C)CC4)cc3)c2C)cc(F)c1C(N)=O [Compound 26b, 2-Fluoro-4-(5-(4-(4-isopropylpiperazin-1-yl)phenyl)-4-methylpyridin-3-yl)-6-methoxybenzamide]
ZIPK/DAPK3
  remaining activity at 1 µM: 108%
SLK/STK2 [1]
  % enzyme activity: 104.60%
LATS1
  remaining activity at 1 µM: 101%
EPHB2
  % enzyme activity: 95.97%
CLK2
  % enzyme activity: 87.08%
BLK
  remaining activity at 1 µM: 101%
Haspin
  remaining activity at 1 µM: 84.8%
VRK2
  % enzyme activity: 85.61%
SLK/STK2 [2]
  remaining activity at 1 µM: 106%
RIPK4
  remaining activity at 1 µM: 79.7%
ZAP70
  remaining activity at 1 µM: 99.6%
FLT1/VEGFR1
  % enzyme activity: 95.86%
ERN2/IRE2
  % enzyme activity: 103.94%
CDK2/cyclin E
  % enzyme activity: 104.69%
CAMK1a
  remaining activity at 1 µM: 94.7%
SNRK
  remaining activity at 1 µM: 113%
CDK2/cyclin A
  % enzyme activity: 92.29%
TBK1
  remaining activity at 1 µM: 87%
EPHB1
  % enzyme activity: 91.06%
TXK
  % enzyme activity: 100.24%
BMX/ETK
  % enzyme activity: 102.35%
JAK1
  remaining activity at 1 µM: 96.7%
PASK
  remaining activity at 1 µM: 90.7%
IR
  % enzyme activity: 100.67%
CAMKK1
  remaining activity at 1 µM: 92.7%
STK22D/TSSK1
  remaining activity at 1 µM: 101%
LYN B
  % enzyme activity: 91.23%
VRK1
  % enzyme activity: 108.29%
PYK2
  remaining activity at 1 µM: 83.8%
PKCd
  % enzyme activity: 92.22%
MLCK/MYLK
  % enzyme activity: 106.15%
CDK17/cyclin Y (PCTK2)
  remaining activity at 1 µM: 94.9%
MELK
  % enzyme activity: 97.92%
EPHA5
  % enzyme activity: 94.61%
TYK1/LTK
  % enzyme activity: 100.49%
MKK4
  % enzyme activity: 94.30%
STK39/STLK3
  % enzyme activity: 94.07%
CLK1
  remaining activity at 1 µM: 93.6%
PEAK1
  remaining activity at 1 µM: 112%
MASTL
  % enzyme activity: 93.05%
FES/FPS
  % enzyme activity: 96.09%
MRCKb/CDC42BPB
  % enzyme activity: 95.88%
MSSK1/STK23
  % enzyme activity: 91.96%
